# No constants are given. Whether binding was seen depends on the method and setting. In cells and extracts the contact can be indirect. Some binding calls cover weakened binding; strength is not graded here. For part of these data: Tags and fused reporters may be left off the sequences shown.
# The chains behind the UniProt entries cited, without tags or fusion partners. Where a name states a change or a piece, a line headed by the entry shows the natural chain unless it says otherwise. A line that says so, or that is headed by a name, gives the form on record, which may keep a tag or linker. Residues count along the entry.
# BRI1-GFP (O22476, residues 24-1196): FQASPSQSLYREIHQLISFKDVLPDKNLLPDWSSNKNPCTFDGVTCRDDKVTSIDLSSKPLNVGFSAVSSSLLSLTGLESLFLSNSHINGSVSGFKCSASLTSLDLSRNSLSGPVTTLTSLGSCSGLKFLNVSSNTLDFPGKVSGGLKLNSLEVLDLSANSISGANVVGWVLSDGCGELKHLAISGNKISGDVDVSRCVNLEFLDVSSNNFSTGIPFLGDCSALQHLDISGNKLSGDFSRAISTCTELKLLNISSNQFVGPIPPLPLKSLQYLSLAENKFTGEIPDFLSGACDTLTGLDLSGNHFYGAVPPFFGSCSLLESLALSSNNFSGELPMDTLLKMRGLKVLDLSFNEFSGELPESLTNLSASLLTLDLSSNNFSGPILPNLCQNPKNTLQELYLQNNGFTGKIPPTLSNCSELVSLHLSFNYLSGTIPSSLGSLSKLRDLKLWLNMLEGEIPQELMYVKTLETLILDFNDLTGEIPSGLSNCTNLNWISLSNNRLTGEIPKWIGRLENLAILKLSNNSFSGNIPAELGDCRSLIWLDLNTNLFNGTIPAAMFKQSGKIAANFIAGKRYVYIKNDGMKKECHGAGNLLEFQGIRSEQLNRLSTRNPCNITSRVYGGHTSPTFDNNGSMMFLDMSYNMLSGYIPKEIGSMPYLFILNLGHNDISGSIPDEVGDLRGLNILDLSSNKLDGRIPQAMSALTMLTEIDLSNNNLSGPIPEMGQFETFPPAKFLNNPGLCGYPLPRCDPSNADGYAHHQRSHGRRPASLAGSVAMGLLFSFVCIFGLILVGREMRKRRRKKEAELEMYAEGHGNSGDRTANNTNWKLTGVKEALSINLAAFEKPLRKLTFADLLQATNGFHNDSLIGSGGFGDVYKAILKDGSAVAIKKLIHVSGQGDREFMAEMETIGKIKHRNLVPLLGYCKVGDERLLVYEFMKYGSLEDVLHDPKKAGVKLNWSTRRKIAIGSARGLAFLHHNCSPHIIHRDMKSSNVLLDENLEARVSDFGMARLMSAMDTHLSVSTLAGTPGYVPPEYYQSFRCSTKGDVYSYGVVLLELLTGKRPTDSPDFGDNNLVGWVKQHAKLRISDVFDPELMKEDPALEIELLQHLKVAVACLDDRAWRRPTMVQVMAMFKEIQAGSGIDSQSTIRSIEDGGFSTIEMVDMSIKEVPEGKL
# BRI1^Q-mCit (BRI1^Y597M/Y599F/Y642A/M657E/F681A fused to mCitrine) (O22476, form named): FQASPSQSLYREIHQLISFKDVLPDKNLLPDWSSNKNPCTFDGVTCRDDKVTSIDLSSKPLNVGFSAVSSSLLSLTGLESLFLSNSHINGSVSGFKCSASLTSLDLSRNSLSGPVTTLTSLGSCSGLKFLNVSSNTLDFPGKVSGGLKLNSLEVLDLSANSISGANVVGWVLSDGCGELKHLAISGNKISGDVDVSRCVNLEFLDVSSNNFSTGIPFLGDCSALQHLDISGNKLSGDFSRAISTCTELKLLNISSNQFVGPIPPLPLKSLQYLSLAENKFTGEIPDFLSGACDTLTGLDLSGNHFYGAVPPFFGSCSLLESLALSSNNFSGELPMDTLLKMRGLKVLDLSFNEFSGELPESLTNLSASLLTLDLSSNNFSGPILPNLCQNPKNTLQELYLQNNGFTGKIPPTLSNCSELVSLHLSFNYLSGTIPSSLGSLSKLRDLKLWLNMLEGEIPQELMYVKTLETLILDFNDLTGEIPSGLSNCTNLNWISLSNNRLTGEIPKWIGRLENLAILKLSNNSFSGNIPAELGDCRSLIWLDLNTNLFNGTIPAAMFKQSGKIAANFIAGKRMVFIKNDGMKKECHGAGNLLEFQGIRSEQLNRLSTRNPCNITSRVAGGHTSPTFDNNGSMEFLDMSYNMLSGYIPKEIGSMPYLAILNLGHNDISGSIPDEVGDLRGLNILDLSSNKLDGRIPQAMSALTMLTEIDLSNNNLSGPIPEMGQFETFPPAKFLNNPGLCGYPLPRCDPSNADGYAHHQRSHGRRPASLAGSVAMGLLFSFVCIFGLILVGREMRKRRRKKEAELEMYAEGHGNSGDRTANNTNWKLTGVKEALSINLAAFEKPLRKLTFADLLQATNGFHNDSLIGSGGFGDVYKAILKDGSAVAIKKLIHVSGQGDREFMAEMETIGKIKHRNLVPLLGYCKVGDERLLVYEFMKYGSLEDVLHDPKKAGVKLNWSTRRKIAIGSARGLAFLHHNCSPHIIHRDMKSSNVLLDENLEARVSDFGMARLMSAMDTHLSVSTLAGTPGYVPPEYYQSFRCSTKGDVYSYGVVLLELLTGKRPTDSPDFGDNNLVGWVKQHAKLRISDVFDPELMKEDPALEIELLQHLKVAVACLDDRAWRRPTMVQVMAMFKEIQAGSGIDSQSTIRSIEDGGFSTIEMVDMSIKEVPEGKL
# What was measured:
# Test in all cases: co-IP
# [1] = target: BRI1-GFP (Arabidopsis thaliana) (UniProt O22476)
# [2] = target: BRI1^Q-GFP (BRI1^Y597M/Y599F/Y642A/M657E/F681A with C-terminal GFP) (Arabidopsis thaliana) (UniProt O22476)
# [3] = target: BRI1^Q-mCit (BRI1^Y597M/Y599F/Y642A/M657E/F681A fused to mCitrine) (Arabidopsis thaliana) (UniProt O22476)
binding [1],binding [2],binding [3],Binder
binds,binds,,"RLP44-RFP (RECEPTOR-LIKE PROTEIN44 fused to RFP) (receptor, UniProt Q9M2Y3 25-274) DPNDEACLKNLRQNLEDPASNLRNWTNSVFSNPCSGFTSYLPGATCNNGRIYKLSLTNLSLRGSISPFLSNCTNLQSLDLSSNQISGVIPPEIQYLVNLAVLNLSSNHLSGEITPQLALCAYLNVIDLHDNELSGQIPQQLGLLARLSAFDVSNNKLSGQIPTYLSNRTGNFPRFNASSFIGNKGLYGYPLQEMMMKSKGLSVMAIVGIGLGSGIASLMISFTGVCLWLRITEKKIVEEEGKISQSMPDY"
,,no binding,"BRI1-ASSOCIATED KINASE1 (BAK1) (receptor, UniProt Q94F62 26-615) NAEGDALSALKNSLADPNKVLQSWDATLVTPCTWFHVTCNSDNSVTRVDLGNANLSGQLVMQLGQLPNLQYLELYSNNITGTIPEQLGNLTELVSLDLYLNNLSGPIPSTLGRLKKLRFLRLNNNSLSGEIPRSLTAVLTLQVLDLSNNPLTGDIPVNGSFSLFTPISFANTKLTPLPASPPPPISPTPPSPAGSNRITGAIAGGVAAGAALLFAVPAIALAWWRRKKPQDHFFDVPAEEDPEVHLGQLKRFSLRELQVASDNFSNKNILGRGGFGKVYKGRLADGTLVAVKRLKEERTQGGELQFQTEVEMISMAVHRNLLRLRGFCMTPTERLLVYPYMANGSVASCLRERPESQPPLDWPKRQRIALGSARGLAYLHDHCDPKIIHRDVKAANILLDEEFEAVVGDFGLAKLMDYKDTHVTTAVRGTIGHIAPEYLSTGKSSEKTDVFGYGVMLLELITGQRAFDLARLANDDDVMLLDWVKGLLKEKKLEALVDVDLQGNYKDEEVEQLIQVALLCTQSSPMERPKMSEVVRMLEGDGLAERWEEWQKEEMFRQDFNYPTHHPAVSGWIIGDSTSQIENEYPSGPR"

# Source: paper doi:10.1101/2022.07.11.499622
